Results: article PMC8002134
No constants are given. Whether binding was seen depends on the method and setting. In cells and extracts the contact can be indirect. Some entries that bind do so weakly or less than the wild type.

Amino acid sequences for entries named in this document (tags omitted).
UniProt P16791: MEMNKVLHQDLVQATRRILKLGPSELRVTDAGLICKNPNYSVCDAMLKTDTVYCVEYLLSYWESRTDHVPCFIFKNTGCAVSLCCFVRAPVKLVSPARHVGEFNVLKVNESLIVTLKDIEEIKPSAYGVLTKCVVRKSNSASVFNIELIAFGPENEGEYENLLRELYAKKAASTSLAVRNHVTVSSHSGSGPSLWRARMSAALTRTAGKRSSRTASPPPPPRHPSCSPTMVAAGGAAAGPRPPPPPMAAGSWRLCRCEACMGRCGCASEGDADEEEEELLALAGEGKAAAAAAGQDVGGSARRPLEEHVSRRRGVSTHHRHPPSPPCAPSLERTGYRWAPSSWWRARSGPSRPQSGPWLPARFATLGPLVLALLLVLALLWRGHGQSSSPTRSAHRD
UniProt P16794: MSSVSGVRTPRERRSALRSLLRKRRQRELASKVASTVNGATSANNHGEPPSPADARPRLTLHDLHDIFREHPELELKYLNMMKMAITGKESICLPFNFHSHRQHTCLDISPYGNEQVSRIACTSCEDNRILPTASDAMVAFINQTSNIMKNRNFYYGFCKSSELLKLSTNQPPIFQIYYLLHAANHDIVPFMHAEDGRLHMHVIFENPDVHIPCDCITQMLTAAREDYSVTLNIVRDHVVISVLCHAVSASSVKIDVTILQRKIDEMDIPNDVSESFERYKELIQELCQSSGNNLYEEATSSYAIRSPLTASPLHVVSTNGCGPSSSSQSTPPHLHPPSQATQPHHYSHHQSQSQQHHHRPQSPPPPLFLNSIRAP

Assays:
[1] = target: HCMV pUL50-HA (human cytomegalovirus (HCMV)) (UniProt P16791); test: co-IP
[2] = target: HCMV pUL53-Flag (human cytomegalovirus (HCMV)) (UniProt P16794); test: co-IP

Substance | binding [1] | binding [2]
HCMV pUL50-AU1 (from UniProt P16791 1-397) | no binding | binds
HCMV pUL50-HA (from UniProt P16791 1-397) | – | binds
HCMV pUL50-RFP (from UniProt P16791 1-397) | no binding | binds
